A short description of the assay: qHTS Assay to Find Inhibitors of Chronic Active B-Cell Receptor Signaling. To be noted: ABC-DLBCL IkBa-CBG/CBR reporter, luminescence ratio (green luciferase fused to IkBa over red control in TMD8 lymphoma cells), 4 h. The text has this:
NIH Molecular Libraries Probe Production Network [MLPCN] NIH Chemical Genomics Center [NCGC] MLPCN Grant: 1 R03 DA031086-01A1 PI Name: Dr. R. Eric Davis NCGC Assay Overview: Diffuse large B-cell lymphoma (DLBCL) is the most common category of non-Hodgkin lymphoma, with ~20,000 new cases per year in the United States. DLBCL should be regarded as a collection of different neoplasms. Microarray gene expression analysis has defined two principal types of DLBCL, named for their similarity to normal B cell stages or activation states: a germinal center B-cell (GCB) type, and an activated B-cell (ABC) type. In ABC-DLBCL, a constitutive high-level activity of the NF-kappaB family of transcription factors has been observed (1) and NF-kappaB target genes are more highly expressed in ABC primary tumors than in GCB tumors. Functional studies have shown a constitutive high-level activity of the IkappaB (inhibitor of kappa-B) kinase (IKK) complex. […] Further analysis of DLBCL primary tumors for NF-kappaB target gene expression imply that although CARD11 is required for constitutive IKK activity in all ABC-DLBCL lines, mutations in CARD11 may be the root cause of IKK activation only in lines or tumors with such mutations. In other words, CARD11 mutations may explain NF-kappaB activation in only 10% of ABC-DLBCL cases. […] This process has been termed 'chronic active BCR signaling' (CABS). The goal of this screen is to find small-molecule inhibitors of the CABS pathway found in ABC-DLBCL lines using a cell-based assay that measures IkappaBalpa stability, which has already been extensively validated in the OCI-Ly3 line (PubChem AID:445; REF: 4). […] The assay uses green (CBG68) and red (CBR) emitting beetle luciferases [Chroma-GloTM developed by Promega Corp.] where the green luciferase is fused to IkappaBalpha and the red luciferase is present in its native state. Both luciferase genes are stably present in the TMD8 human ABC DLBCL cell line, but their expression is under the control of tetracycline-inducible promoters. Following the addition of doxycycline to induce expression of the luciferases, the green luminescence in control cultures rises only slowly because the CBG fusion partner IkappaBalpha is targeted by IKK activity for rapid degradation. In contrast, green luminescence rises rapidly in the presence of proteasome inhibitors or IKK inhibitors. The rise in red luminescence of CBR is not affected by proteasome or IKK inhibitors, and serves as normalization for cell number and nonspecific effects. Compounds were screened as a concentration-titration series that ranged from 46 uM to 3 nM.
NCGC Assay Protocol Summary: Cells were seeded in 1536-well plates at 5000 cells/4uL in IMDM medium containing 0.5% FBS, w/o phenol red, 1% penicillin/streptomycin. Then, 23 nL of compounds or DMSO were delivered to each well using a pin tool. One uL 20ng/ml doxycycline was then dispensed into white solid 1536-well plates and the plates were incubated at 37C/5% C02 in a cell incubator for 4 hrs. Then 4 uL luminescent substrate mix (in-house prepared: 150 mM Tris-Cl, pH 7.6, 3 mM MgCl2, 1% Triton X-100, 5 mM DTT, 0.2 mM CoA, 0.15 mM ATP, 5 mM D-luciferin, final concentrations) was added to each well. The plate was incubated at r.t. for 10-15 min. The plates were measured on a ViewLux plate reader for green luminescence (540/20 nm filter) and red luminescence (618/8 nm filter). The green and red luminescent signals were corrected for red and green luminescence filter overlap using previously determined filter calibration constants (determined using the procedure outlined in the Promega Technical Manual; REF 4). The %Activity was determined from the ratio of corrected green/red luminescent values. MG132 were used as control. […] Red luminescent %Activity was normalized to the difference between red luminesence in basal cells (0%Activity) and zero luminescence (-100% Activity). […]
(In general: qHTS replaces the single test concentration by a dilution series.)

Where [1] appears, read: measured here: CBR red luminescence, cell number.
Setting [2] is: measured here: IkBa-CBG green luminescence.

The values that follow come from PubChem BioAssay AID493014 (National Center for Advancing Translational Sciences (NCATS), 2011).

“And” between values parts separate entries of the source, which are not always exact repeats. Identical values can stand only once. The list shows a part of the results. These are further read-outs of the screen, such as a control signal, another cell line or another target. No call is given for them. Compounds called inactive in the main read-out are mostly missing here. The note in brackets gives the kind of curve behind each potency; many fits are weak.

A word on the AC50: it is the concentration at which the activity in the assay is half-maximal. In the case of `O=C(O)c1ccc(CSc2nc3ccccc3o2)cc1`, the AC50 under setting [1] is 12.6 µM [falling, partial curve, poor fit] and the AC50 under setting [2] was 10 µM [falling, partial curve, poor fit].
With `CN(Cc1nc(-c2cccc(Cl)c2)no1)C1CCOCC1`, under setting [1], the AC50 is 8.91 µM [rising, partial curve, poor fit].
On the same count and under the same terms, next, `Cc1c(Cl)ccc2sc(N3CCN(C(=O)c4ccco4)CC3)nc12`: 1.41 µM [rising, full curve, poor fit].
Same read-out and setting: the figure for `Nc1c(-c2ccccc2)cnn1-c1ccccc1` is 8.91 µM [falling, partial curve, poor fit]; for `COc1cccc(-n2cc(CN(C)Cc3nc(Cc4ccccc4)no3)cn2)c1` it is 35.5 µM [rising, single point]; for `COc1cc(-c2noc(C)c2C#Cc2ccccn2)cc(OC)c1OC` it is 35.5 µM [rising, single point].
As to `Cc1nc2nc[nH]c2cc1Br`, the AC50 under setting [1] is 10 µM [falling, partial curve, poor fit].
`COc1cc(C(=O)OCC(=O)N(CC(C)C)C2CCS(=O)(=O)C2)ccc1OCC(C)C` (centres undefined): under setting [1], the AC50 is 20.6 µM [falling, single point].
Regarding `Cc1cc(Nc2cccc(Cl)c2)n2ncnc2n1`, the AC50 under setting [1] was 5.17 µM [rising, partial curve, poor fit].
In the case of `C[C@@]12C(=O)Nc3ccccc3C(=O)N1[C@H]1c3cc(Br)ccc3OC[C@@H]1[C@@H]2c1ccccc1`, the AC50 runs as follows: under setting [1], 3.26 µM [falling, full curve]; under setting [2], 2.59 µM [rising, full curve, poor fit].
On to `COc1ccc2c(c1)CCc1c(C(=O)NCC(C)C)noc1-2`, for which the AC50 under setting [1] was 25.1 µM [falling, single point].
The same measure, in the same setting: next, `COc1ccccc1-c1nc(-c2ccc(Br)o2)no1`: 3.26 µM [falling, full curve] and 1.58 µM [falling, full curve]; `CCOc1cnc(-c2ccc(Cl)cc2)o1`: 29.1 µM [rising, single point]; `O=C(CSc1nncs1)Nc1ccc(Cl)cc1C(F)(F)F`: 0.0058 µM [rising, full curve, poor fit].
With `CC(=O)Nc1ccc(C)c(NC(=S)Nc2ccc(F)cc2)c1`, under setting [1], the AC50 was 0.316 µM [rising, full curve, poor fit].
Same read-out and setting: the figure for `CCOc1ccc(C2Nc3ccccc3C(CC)(CC)O2)cc1` (centres undefined) is 0.1 µM [rising, full curve, poor fit]; for `COc1ccc(/C=C/C(=O)Nc2ccccc2C)cc1S(=O)(=O)N1CCOCC1` it is 7.94 µM [falling, partial curve, poor fit]; for `COc1ccc(Nc2nc(C)cc(C)c2C#N)c(OC)c1` it is 0.562 µM [rising, full curve, poor fit].
The same measure, in the same setting: the figure for `CCn1c2nc(SCCN3CCOCC3)nnc2c2cc(C)cc(C)c21` is 22.4 µM [falling, single point]; for `Cc1ccc(-c2csc(N(Cc3ccco3)C(=O)c3cccs3)n2)cc1` it is 18.4 µM [rising, single point].
The same measure, in the same setting: next, `COc1ccc(NC(=O)CSC2CC(=O)N(c3ccc4c(c3)OCCO4)C2=O)cc1` (centres undefined): 1.84 µM [rising, partial curve, poor fit].
`CCOC(=O)c1c(NC(=O)CN2CCN(C)CC2)sc(C(=O)Nc2ccccc2)c1C`: the AC50 under setting [1] was 11.2 µM [falling, single point].
`CC(=O)Oc1ccc(NC(=O)CCC2CCCCC2)c(C(=O)O)c1`: the AC50 under setting [1] was 1.64 µM [falling, full curve].
Turning to `COc1ccc(CCNC(=O)C(=O)NN=C2CCCCCCC2)cc1OC`, the AC50 under setting [1] is 5.62 µM [rising, single point].
On to `Cc1cc(NC(=O)CCSc2nc(-c3ccco3)cc(C(F)(F)F)n2)n(-c2ccccc2)n1`, for which the AC50 by setting is: under setting [1], 25.9 µM [falling, single point]; under setting [2], 20.6 µM [rising, partial curve, poor fit].
With `CCn1nc(C(=O)OC2CCOC2=O)c2ccccc2c1=O` (centres undefined), the AC50 under setting [1] is 16.4 µM [falling, single point].
Still for that read-out and setting: next, `Cc1cc(=O)[nH]c(SCCCOc2ccc3c(c2)CCC3)n1`: 6.51 µM [rising, partial curve, poor fit].
For the compound `Cc1ccc(NC(=O)N2CCCN(Cc3ccc(F)cc3)C2)cc1C`, the AC50 under setting [1] is 35.5 µM [falling, partial curve, poor fit].
The same measure, in the same setting: the figure for `COC(=O)c1cc(OC)c(OC)cc1NC(=O)CN1C(=O)c2ccccc2C1=O` is 0.517 µM [rising, partial curve].
For `COc1ccc(/C=C2\CCc3ccccc3C2=O)cc1Cn1cccn1`, the AC50 under setting [1] is 2.91 µM [rising, single point].
The same measure, in the same setting: next, `CCOc1ccc(Br)cc1/C=N/NC(=O)c1ccncc1`: 0.259 µM [falling, partial curve, poor fit].
The same measure, in the same setting: next, `O=[N+]([O-])c1cc([N+](=O)[O-])c2n[nH]c(-c3ccccc3)c2c1`: 5.62 µM [rising, single point]; `CSCCC(NC(=O)c1ccccc1Br)C(=O)NCc1ccc(F)cc1` (centres undefined): 2.82 µM [rising, single point].
The same measure, in the same setting: next, `C1=C(CCNc2ncnc3c2cnn3-c2ccccc2)CCCC1`: 0.731 µM [rising, full curve, poor fit]; `O=C(Nc1nc(-c2ccccc2)c(-c2ccccc2)o1)c1ccc(F)cc1`: 3.16 µM [falling, single point]; `Cc1csc(NC(=O)CSc2nsc(SCC(=O)Nc3nc(C)cs3)c2C#N)n1`: 35.5 µM [falling, single point].
For the compound `CCOC(=O)CN1CC23C=CC(O2)C(C(=O)O)C3C1=O` (centres undefined), under setting [1], the AC50 is 0.517 µM [rising, full curve, poor fit].
Same read-out and setting: next, `Cc1cccc(NC(=O)CCC(=O)N/N=C/c2ccc(O)cc2O)c1`: 35.5 µM [falling, single point]; `CN(C)c1cccc(C(=O)N/N=C/c2ccccc2F)c1`: 3.98 µM [falling, full curve, poor fit]; `O=C(CSc1cn(CCNC(=O)c2cccs2)c2ccccc12)NCc1ccccc1`: 23.1 µM [falling, single point].
Still for that read-out and setting: the figure for `CCOc1ccc(NC(=O)CN(C)C(=O)c2ccccc2Cc2ccccc2)cc1OCC` is 18.4 µM [rising, single point]; for `COc1ccc(N(CC(=O)Nc2ccccc2OC)S(=O)(=O)c2ccc(NC(C)=O)cc2)cc1` it is 35.5 µM [falling, single point].
Consider `O=C1NC(=NCc2ccccc2)S/C1=C/c1ccc(O)cc1`, for which the AC50 by setting is: under setting [1], 29.1 µM [falling, single point]; under setting [2], 2.91 µM [falling, partial curve, poor fit].
As to `CCOC(=O)c1c(NC(=O)c2ccccc2)sc2c(O)c(CN(CC)CC)ccc12`, under setting [1], the AC50 was 1 µM [falling, full curve].
Consider `CCCCN(CC)C(=O)c1oc2ccc(S(=O)(=O)N3CCCC3)cc2c1C`, for which the AC50 under setting [1] was 3.98 µM [rising, single point] and the AC50 under setting [2] is 5.62 µM [falling, single point].
`Cn1c(NC(=O)c2ccccc2F)cc(=O)n(C)c1=O`: under setting [1], the AC50 was 29.1 µM [rising, single point].
Same read-out and setting: the figure for `C=CCN1C(=O)C2C3CC(=O)C(c4ccccc43)C2C1=O` (centres undefined) is 0.708 µM [rising, full curve, poor fit]; for `COc1cccc(C(=O)NCCS(=O)(=O)N2CCCC2)c1` it is 13 µM [rising, partial curve].
The same measure, in the same setting: the figure for `c1ccc2[nH]c(-c3ccnc4ccccc34)nc2c1` is 11.6 µM [falling, partial curve, poor fit] and 11.2 µM [falling, partial curve]; for `COc1ccc(C(=O)Nc2ccccc2C(=O)O)cc1Cl` it is 1.16 µM [falling, full curve]; for `CCc1cc2c(=O)oc(-c3ccc(F)cc3)nc2s1` it is 3.16 µM [falling, full curve].
Take `Cc1nn(-c2ccccc2)c(C)c1/C=N/NC(=O)c1cc(-c2cccs2)[nH]n1`: the AC50 under setting [2] was 2.59 µM [falling, full curve].
Consider `N#CC1=C(N)NC(=S)C(C(N)=O)C1c1ccc([N+](=O)[O-])cc1` (centres undefined), for which the AC50 under setting [1] is 35.5 µM [falling, single point].
Same read-out and setting: the figure for `c1ccc(CSc2nnc(-c3cccs3)o2)cc1` is 0.251 µM [rising, full curve, poor fit].
For `COC(=O)c1ccc(NC(=O)c2c(NCc3ccc(C)o3)sc3c2CCCC3)cc1`, the AC50 under setting [1] is 8.91 µM [falling, partial curve, poor fit].
On the same count and under the same terms, the figure for `C/C(=N\NC(=O)c1nc2ccccn2c1C)c1ccc2c(c1)OCO2` is 6.51 µM [rising, partial curve, poor fit]; for `O=C(NCCO)c1ccc2c3n(nc2c1)-c1ccccc1CO3` it is 3.55 µM [falling, full curve].
Consider `O=C(Nc1cccc(S(=O)(=O)N2CCOCC2)c1)c1ccco1`, for which the AC50 is 29.1 µM [falling, single point] under setting [1] and 29.1 µM [rising, partial curve, poor fit] under setting [2].
For `O=C(Nc1ccc2nc(-c3ccccn3)[nH]c2c1)C1CCCCC1`, the AC50 under setting [1] is 16.4 µM [falling, single point].
Same read-out and setting: the figure for `COc1cc(/C=C/C(=O)c2ccc(Cl)s2)cc(OC)c1O` is 11.6 µM [falling, partial curve, poor fit]; for `CCn1c(=O)cc(SCC(=O)Nc2ccc3c(c2)OCO3)c2ccccc21` it is 16.4 µM [falling, single point]; for `C(=N\Nc1nc2ccccc2[nH]1)/c1ccccn1` it is 1.58 µM [falling, full curve].
The same measure, in the same setting: next, `CSc1nc(N)nc2c1ncn2CC(=O)NCc1ccccc1`: 18.4 µM [falling, partial curve, poor fit].
